# Library screen at single concentrations

Protein sequences, listed by entry. Tags and fused reporters are not part of them. Residues count along the entry.
UniProt A4I591, 1-473: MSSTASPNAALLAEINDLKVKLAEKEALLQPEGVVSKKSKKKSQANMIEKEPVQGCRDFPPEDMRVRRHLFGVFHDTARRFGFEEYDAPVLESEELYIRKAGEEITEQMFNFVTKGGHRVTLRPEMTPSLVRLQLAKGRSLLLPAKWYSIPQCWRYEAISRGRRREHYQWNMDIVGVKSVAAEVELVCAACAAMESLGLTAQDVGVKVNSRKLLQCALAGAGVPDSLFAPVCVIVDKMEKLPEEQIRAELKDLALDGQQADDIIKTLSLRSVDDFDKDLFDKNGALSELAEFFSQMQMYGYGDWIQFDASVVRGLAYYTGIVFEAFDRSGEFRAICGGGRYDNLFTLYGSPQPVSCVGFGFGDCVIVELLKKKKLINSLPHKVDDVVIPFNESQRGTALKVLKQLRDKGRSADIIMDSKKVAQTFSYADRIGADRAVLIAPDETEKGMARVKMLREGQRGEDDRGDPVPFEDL
UniProt I6X8D2, whole entry: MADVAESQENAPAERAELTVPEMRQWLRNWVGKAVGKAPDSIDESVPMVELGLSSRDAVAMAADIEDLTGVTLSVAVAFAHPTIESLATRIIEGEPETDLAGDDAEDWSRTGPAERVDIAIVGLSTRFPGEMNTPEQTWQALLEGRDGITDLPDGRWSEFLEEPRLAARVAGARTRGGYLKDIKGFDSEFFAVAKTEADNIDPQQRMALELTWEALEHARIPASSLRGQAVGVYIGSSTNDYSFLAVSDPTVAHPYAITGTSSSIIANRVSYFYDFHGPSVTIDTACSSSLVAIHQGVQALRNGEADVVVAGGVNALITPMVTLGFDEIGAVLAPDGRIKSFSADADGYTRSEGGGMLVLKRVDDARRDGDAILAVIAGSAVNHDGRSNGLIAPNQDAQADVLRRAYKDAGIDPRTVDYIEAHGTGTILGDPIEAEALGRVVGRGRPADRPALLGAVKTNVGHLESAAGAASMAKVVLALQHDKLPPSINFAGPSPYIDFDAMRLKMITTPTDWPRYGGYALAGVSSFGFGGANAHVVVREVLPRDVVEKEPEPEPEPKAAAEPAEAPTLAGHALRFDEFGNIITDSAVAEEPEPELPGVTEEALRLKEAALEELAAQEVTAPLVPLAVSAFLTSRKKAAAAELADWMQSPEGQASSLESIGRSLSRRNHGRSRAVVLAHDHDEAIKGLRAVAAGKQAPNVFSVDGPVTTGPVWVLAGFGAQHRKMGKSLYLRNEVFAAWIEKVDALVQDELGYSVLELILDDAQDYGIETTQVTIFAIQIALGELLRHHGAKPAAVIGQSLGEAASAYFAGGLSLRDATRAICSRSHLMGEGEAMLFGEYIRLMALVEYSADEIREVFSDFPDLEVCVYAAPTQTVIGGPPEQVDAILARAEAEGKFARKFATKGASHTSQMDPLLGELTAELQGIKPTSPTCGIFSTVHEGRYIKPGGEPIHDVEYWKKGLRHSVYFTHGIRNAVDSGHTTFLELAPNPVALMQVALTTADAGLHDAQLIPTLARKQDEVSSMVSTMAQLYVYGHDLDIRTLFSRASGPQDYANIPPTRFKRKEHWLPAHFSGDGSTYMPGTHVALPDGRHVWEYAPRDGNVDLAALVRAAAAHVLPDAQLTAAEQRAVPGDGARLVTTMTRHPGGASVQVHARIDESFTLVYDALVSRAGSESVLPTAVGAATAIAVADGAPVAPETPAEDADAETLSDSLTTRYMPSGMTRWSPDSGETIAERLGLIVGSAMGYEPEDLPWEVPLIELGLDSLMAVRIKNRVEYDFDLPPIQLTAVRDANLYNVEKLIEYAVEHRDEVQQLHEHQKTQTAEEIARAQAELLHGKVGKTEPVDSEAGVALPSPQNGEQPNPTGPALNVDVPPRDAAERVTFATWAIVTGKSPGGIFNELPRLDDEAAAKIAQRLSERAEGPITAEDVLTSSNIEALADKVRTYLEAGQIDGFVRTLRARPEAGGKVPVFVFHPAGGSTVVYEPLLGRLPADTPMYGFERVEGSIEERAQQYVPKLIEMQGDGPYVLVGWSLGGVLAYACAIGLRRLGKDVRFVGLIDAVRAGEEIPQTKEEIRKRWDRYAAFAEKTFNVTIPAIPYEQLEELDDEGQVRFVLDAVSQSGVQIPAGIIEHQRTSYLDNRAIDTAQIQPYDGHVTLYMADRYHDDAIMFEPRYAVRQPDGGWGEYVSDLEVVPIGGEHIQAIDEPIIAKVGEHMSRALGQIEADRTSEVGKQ
UniProt P9WFT3, whole entry: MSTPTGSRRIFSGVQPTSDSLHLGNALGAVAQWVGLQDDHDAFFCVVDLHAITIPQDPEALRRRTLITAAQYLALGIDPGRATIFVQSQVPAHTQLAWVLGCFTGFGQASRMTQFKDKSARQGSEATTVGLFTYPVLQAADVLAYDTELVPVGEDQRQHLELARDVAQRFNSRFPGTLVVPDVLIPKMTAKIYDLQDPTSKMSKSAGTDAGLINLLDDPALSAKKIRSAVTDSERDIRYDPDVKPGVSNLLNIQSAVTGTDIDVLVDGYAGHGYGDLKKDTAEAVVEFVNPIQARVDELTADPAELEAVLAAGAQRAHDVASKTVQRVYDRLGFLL
UniProt Q4DA54, 1-478: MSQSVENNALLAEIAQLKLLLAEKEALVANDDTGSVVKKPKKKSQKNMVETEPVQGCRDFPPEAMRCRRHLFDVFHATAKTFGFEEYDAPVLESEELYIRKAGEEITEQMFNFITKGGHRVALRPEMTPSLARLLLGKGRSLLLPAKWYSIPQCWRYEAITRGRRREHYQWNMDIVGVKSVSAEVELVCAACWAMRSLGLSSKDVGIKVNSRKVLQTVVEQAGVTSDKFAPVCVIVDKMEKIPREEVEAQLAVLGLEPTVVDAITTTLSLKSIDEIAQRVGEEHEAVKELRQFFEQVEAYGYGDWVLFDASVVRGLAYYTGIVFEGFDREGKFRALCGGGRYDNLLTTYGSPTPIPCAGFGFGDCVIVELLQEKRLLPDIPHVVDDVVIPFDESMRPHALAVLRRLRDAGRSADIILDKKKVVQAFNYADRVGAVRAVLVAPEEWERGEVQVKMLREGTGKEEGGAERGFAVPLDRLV

Measurements from “University of Dundee, Small-Polar-MMV Screening Library” (2021), ChEMBL document CHEMBL3988442.

LiHisRS: 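Histidine-tRNA ligase, Leishmania infantum (UniProt A4I591). Enzyme assay of histidyl-tRNA synthetase; the read-out is not stated. Tested at 30 µM. The record gives no direction; compounds that gave an IC50 in retests scored well above the rest, so higher reads as stronger inhibition. The assay is labelled LdHisRS but filed under L. infantum. Of about 69,000 compounds tested this way, about 410 (0.6%) reached 50% or more in at least one test.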
Pks13 thioesterase: 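Polyketide synthase Pks13, Mycobacterium tuberculosis (UniProt I6X8D2). Enzyme assay of the thioesterase domain of polyketide synthase 13; the read-out is not stated. Concentration: 30 µM. The record gives no direction; the compounds picked for IC50 retests had high values, so higher reads as stronger inhibition. Size under these conditions: about 67,000 compounds, about 300 of them at 50% or above in at least one test.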
MtTrpRS: 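Enzyme assay of tryptophanyl-tRNA synthetase; the read-out is not stated. Target: Tryptophan-tRNA ligase, Mycobacterium tuberculosis (UniProt P9WFT3). Compounds at 10 µM. Higher most likely means stronger inhibition; the record gives no direction and few retests gave an IC50. Of about 65,000 compounds tested this way, about 64 (0.098%) reached 50% or more in at least one test.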
TcHisRS: 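Enzyme assay of histidyl-tRNA synthetase; the read-out is not stated. Target: Histidine-tRNA ligase, Trypanosoma cruzi CL Brener (UniProt Q4DA54). Concentration: 30 µM. The record gives no direction; compounds that gave an IC50 in retests scored well above the rest, so higher reads as stronger inhibition. Size under these conditions: about 69,000 compounds, about 31 of them at 50% or above in at least one test.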

The filed quantity is “Percent Effect” (%).
The record does not define 0% and 100%; most values in the screen are far below 50% and negative numbers occur (in some assays of this library far below -100).
The compounds are a random part of those screened.

{"smiles": "Cc1ncsc1CN1C[C@@H]2CN(Cc3cccnc3)CCO[C@@H]2C1", "LiHisRS": 10.92, "Pks13 thioesterase": -21.66, "MtTrpRS": -1.1, "TcHisRS": 3.922}
{"smiles": "NC(=O)c1cccnc1N1C[C@@H]2CC[C@H](C1)N(Cc1ccccn1)C2=O", "LiHisRS": 15.38, "Pks13 thioesterase": 0.5916, "MtTrpRS": 0.06536, "TcHisRS": -48.19}
{"smiles": "NC(=O)N1CCC(C(=O)NCc2nncn2-c2ccccc2)CC1", "LiHisRS": 11.4, "Pks13 thioesterase": 1.949, "MtTrpRS": -8.475, "TcHisRS": 4.36}
{"smiles": "Oc1cc(C2CCCCN2Cc2cccs2)nc(-c2ccncc2)n1", "stereo": "configuration not stated", "LiHisRS": 8.392, "Pks13 thioesterase": 17.95, "MtTrpRS": 1.632, "TcHisRS": 2.825}
{"smiles": "O=C(c1cccnc1)N1CCC(Oc2cccc(C(F)(F)F)c2)CC1", "LiHisRS": 15.5, "Pks13 thioesterase": -8.977, "MtTrpRS": -0.9031, "TcHisRS": 13.1}
{"smiles": "COc1ncccc1CNC1CCc2c(ccc(=O)n2C)C1", "stereo": "configuration not stated", "LiHisRS": 1.98, "TcHisRS": -0.5025}
{"smiles": "Cc1ccccc1-c1cncc(C2CCN(C)CC2)n1", "LiHisRS": 16.67, "Pks13 thioesterase": -58.97, "MtTrpRS": -4.264, "TcHisRS": -15.68}
{"smiles": "Cc1ccc(CN2CCCC3(COCCN(Cc4c[nH]nn4)C3)C2)s1", "stereo": "configuration not stated", "LiHisRS": -8.571, "MtTrpRS": 11.39, "TcHisRS": -1.961}
{"smiles": "Cc1ccc(N2CCN(C(=O)COc3nccc(C)n3)CC2)nn1", "LiHisRS": 17.31, "Pks13 thioesterase": -24.4, "MtTrpRS": -6.201, "TcHisRS": 0}
{"smiles": "O=C1CCNc2ncc(-c3ccccc3Cl)cc2CN1C1CC1", "LiHisRS": 20.41, "Pks13 thioesterase": -5.006, "TcHisRS": 2.247}
{"smiles": "OCCNc1cc(-c2nccnc2N2CCCC2)c2cc[nH]c2n1", "LiHisRS": 62.77, "Pks13 thioesterase": 43.09, "MtTrpRS": 3.097, "TcHisRS": 31.31}
{"smiles": "CC(C)n1cnnc1CN(C)Cc1cnc(-c2ccccn2)nc1", "LiHisRS": 15.62, "Pks13 thioesterase": -21.16, "MtTrpRS": -3.749, "TcHisRS": 7.447}
{"smiles": "CCc1cc(N2CCN(c3cnccn3)CC2)n2nc(C)c(C)c2n1", "LiHisRS": -5, "Pks13 thioesterase": 23.85, "MtTrpRS": 14.01, "TcHisRS": 6.818}
{"smiles": "O=C(CCc1ccccc1)N1CCn2cc(Cn3cncn3)nc2C1", "LiHisRS": 8.738, "Pks13 thioesterase": -10.96, "MtTrpRS": -0.3307, "TcHisRS": 3.261}
{"smiles": "COc1ccc(S(=O)(=O)N2CCC[C@@H]3CN(C(=O)C4CC4)C[C@@H]32)cc1F", "LiHisRS": 14.39, "Pks13 thioesterase": -5.017, "MtTrpRS": 2.474, "TcHisRS": 4.981}
{"smiles": "COCc1ncn(Cc2nc(-c3ccco3)oc2C)n1", "LiHisRS": 18.64, "Pks13 thioesterase": -15.75, "MtTrpRS": 3.076, "TcHisRS": 6.341}
{"smiles": "COC1CCN(C(=O)Nc2ccccc2)CC(=O)N(C)c2ccccc21", "stereo": "configuration not stated", "LiHisRS": 12.24, "Pks13 thioesterase": 9.139, "TcHisRS": 14.61}
{"smiles": "CN(CCCc1cnn(C)c1)Cc1cc2n(n1)CCCN(C)C2", "LiHisRS": -5.882, "Pks13 thioesterase": 6.433, "MtTrpRS": 0.9084, "TcHisRS": 6.03}
{"smiles": "c1cncc(OC[C@@]23CCC[C@@H]2CN(CC2CCOCC2)C3)c1", "LiHisRS": 5.769, "Pks13 thioesterase": -13.58, "TcHisRS": 8.38}

The first 2 entries again:

SMILES	LiHisRS	Pks13 thioesterase	MtTrpRS	TcHisRS
Cc1ncsc1CN1C[C@@H]2CN(Cc3cccnc3)CCO[C@@H]2C1	10.92	-21.66	-1.1	3.922
NC(=O)c1cccnc1N1C[C@@H]2CC[C@H](C1)N(Cc1ccccn1)C2=O	15.38	0.5916	0.06536	-48.19